Reference: patent US20230265438A1, “NUCLEIC ACIDS FOR INHIBITING EXPRESSION OF CNNM4 IN A CELL” (ASOCIACIÓN CENTRO DE INVESTIGACIÓN COOPERATIVA EN …, priority 2020, published 2023)
Some of these results come from one statement about several compounds together. Oligonucleotides are written 5' to 3', each unit as a sugar letter and its base; * is a phosphorothioate linkage, no mark a phosphodiester; rarer units and linkages stand in square brackets, end groups in braces. Plain capitals give the bases only. {ST23(ps)x3-ST43} = conjugate of three ST23 units joined by phosphorothioates, then ST43, saccharide (preferably GalNAc) moiety; {VP} = (E)-vinylphosphonate; m = 2'-O-methyl; f = 2'-fluoro

Assays:
human CNNM4 mRNA = experiment: CNNM4 mRNA in primary human hepatocytes, receptor mediated uptake of siRNA conjugates (Examples 8, 10, 22); type: cell-based; conditions: 100 nM, 10 nM and 1 nM conjugate, following day, normalised to HPRT1, FIG. 14, 16
mouse CNNM4 mRNA = experiment: CNNM4 mRNA in primary mouse hepatocytes, receptor mediated uptake of siRNA conjugates (Examples 9, 11); type: cell-based; conditions: 100 nM, 10 nM and 1 nM conjugate, following day, normalised to ApoB, FIG. 15, 17

Substance: EU420: CNNM4 siRNA conjugate, duplex EU414A/EU420B; consists of SEQ ID NO: 237 and SEQ ID NO: 460 (chain 1 UGACAAAAGACACAAGAGU; chain 2 ACUCUUGUGUCUUUUGUCA; conjugate, chemistry not fully specified)
- human CNNM4 mRNA levels (human CNNM4 mRNA): dose-dependent reduction
- mouse CNNM4 mRNA levels (mouse CNNM4 mRNA): dose-dependent reduction

Substance: EU414: CNNM4 siRNA conjugate, duplex EU414A/EU414B; consists of SEQ ID NO: 237 and SEQ ID NO: 238 (chain 1 {VP}-mUfGmAfCmAfAmAfAmGfAmCfAmCfAmAfGmA*fG*mU; chain 2 {ST23(ps)x3-ST43}*mAmCmUmCmUmUfGfUfGmUmCmUmUmUmUmGmU*mC*mA)
- human CNNM4 mRNA levels (human CNNM4 mRNA): dose-dependent reduction

Substance: EU422: CNNM4 siRNA conjugate, duplex EU422A/EU422B; consists of SEQ ID NO: 461 and SEQ ID NO: 462 (chain 1 UGACAAAAGACACAAGAGU; chain 2 ACUCUUGUGUCUUUUGUCA; chain 1: sugars from the 5' end mfmfmfmfmfmfmfmfmfm, 5' {VP}, backbone not given here; chain 2: sugars from the 5' end m6 f3 m10, backbone not given here; undefined (ps2) end linkages, 5' conjugate ST23/ST41 on second strand, further chemistry not fully specified)
- human CNNM4 mRNA levels (human CNNM4 mRNA): dose-dependent reduction
- mouse CNNM4 mRNA levels (mouse CNNM4 mRNA): dose-dependent reduction
